Results from one PubChem assay

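A panel of P. falciparum strains inside erythrocytes is exposed to compounds for three days, then a DNA-binding dye reports the amount of parasite DNA.
Each compound was titrated across a series from about 0.000037 to 29 µM.
The number is the fitted AC50, the concentration giving a half-maximal change in signal; a lower value means higher potency, whether the curve shows a decrease or an increase.
Calls follow the curve class and fit quality: every row here is inconclusive, covering signal-raising curves and weak, poorly fitted, partial or highest-dose-only inhibition curves.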

Values are in µM.
All entries here are filed as inconclusive.
These entries are mostly ones the record files as inconclusive; other results of the assay are not listed here.
Potencies fitted to partial, single-point or poorly fitting curves are rough.

Result for CNCCC=C1c2ccccc2CCc2ccccc21 [SC27B] was potency 12.59 µM (inhibitor, partial curve). With CNCCC=C1c2ccccc2CCc2ccccc21 [CP329] the assay gave potency 3.013 µM (inhibitor, partial curve, poor fit). CNCCC=C1c2ccccc2CCc2ccccc21 [CP217] gave potency 5.012 µM (inhibitor, partial curve). Result for CNCCC=C1c2ccccc2CCc2ccccc21 [TAB165] was potency 6.31 µM (inhibitor, partial curve). Result for CNCCC=C1c2ccccc2CCc2ccccc21 [TAB113] was potency 11.22 µM (inhibitor, partial curve). With CNCCC=C1c2ccccc2CCc2ccccc21 [CP192] the assay gave potency 19.01 µM (inhibitor, single point). For CNCCC=C1c2ccccc2CCc2ccccc21 [DIV30] the result was potency 6.012 µM (inhibitor, partial curve). For CNCCC=C1c2ccccc2CCc2ccccc21 [CP262] the result was potency 13.46 µM (inhibitor, partial curve, poor fit).

CNCCC=C1c2ccccc2CCc2ccccc21 [DFO2036] read potency 10 µM (inhibitor, single point). CNCCC=C1c2ccccc2CCc2ccccc21 [CP297] read potency 5.358 µM (inhibitor, partial curve, poor fit). CNCCC=C1c2ccccc2CCc2ccccc21 [CP237] gave potency 1.259 µM (inhibitor, full curve, poor fit). C=CCN1CC(C(=O)N(CCCN(C)C)C(=O)NCC)CC2c3cccc4[nH]cc(c34)CC21 (stereo not shown) [N140] read potency 17.78 µM (inhibitor, single point). C=CCN1CC(C(=O)N(CCCN(C)C)C(=O)NCC)CC2c3cccc4[nH]cc(c34)CC21 (stereo not shown) [SC27B] gave potency 12.59 µM (inhibitor, single point). C=CCN1CC(C(=O)N(CCCN(C)C)C(=O)NCC)CC2c3cccc4[nH]cc(c34)CC21 (stereo not shown) [CP191] gave potency 6.31 µM (inhibitor, partial curve). C=CCN1CC(C(=O)N(CCCN(C)C)C(=O)NCC)CC2c3cccc4[nH]cc(c34)CC21 (stereo not shown) [CP217] gave potency 10 µM (inhibitor, single point). For C=CCN1CC(C(=O)N(CCCN(C)C)C(=O)NCC)CC2c3cccc4[nH]cc(c34)CC21 (stereo not shown) [3D7] the result was potency 17.78 µM (inhibitor, single point).

C=CCN1CC(C(=O)N(CCCN(C)C)C(=O)NCC)CC2c3cccc4[nH]cc(c34)CC21 (stereo not shown) [P93_24] read potency 7.943 µM (inhibitor, partial curve). For C=CCN1CC(C(=O)N(CCCN(C)C)C(=O)NCC)CC2c3cccc4[nH]cc(c34)CC21 (stereo not shown) [parasite line A] the result was potency 17.78 µM (inhibitor, single point). With C=CCN1CC(C(=O)N(CCCN(C)C)C(=O)NCC)CC2c3cccc4[nH]cc(c34)CC21 (stereo not shown) [AS120] the assay gave potency 12.59 µM (inhibitor, single point). C=CCN1CC(C(=O)N(CCCN(C)C)C(=O)NCC)CC2c3cccc4[nH]cc(c34)CC21 (stereo not shown) [ATS95] gave potency 11.22 µM (inhibitor, single point). C=CCN1CC(C(=O)N(CCCN(C)C)C(=O)NCC)CC2c3cccc4[nH]cc(c34)CC21 (stereo not shown) [AA1029] read potency 17.78 µM (inhibitor, single point).

From PubChem BioAssay record AID504749 (NCATS, 2011).